The target of assay [1] is endogenous c-Jun of human HepG2 cells (human) (UniProt P05412). Briefly: GST pull-down from HepG2 cell extracts, blot with c-Jun antibody.
Assay [2] has the same target. Briefly: GST pull-down from HepG2 whole cell extracts, immunoblot with c-Jun antibody.
For assay [3] the target is unchanged. The experiment in a line: co-immunoprecipitation from HepG2 nuclear extracts, Western blot.
The target is the same in assay [4]. Briefly: co-immunoprecipitation from nuclear extracts of IL-6-treated and untreated HepG2 cells, Western blot.
In assay [5] the target is GST-Stat3 (107-377) (Homo sapiens (Human)) (UniProt P40763). The experiment in a line: GST pull-down of 35S-labeled in vitro translated c-Jun fragment.
For assay [6] the target is unchanged. Briefly: GST pull-down of in vitro translated c-Jun fragment.

Amino acid sequences for entries named in this document (tags omitted). A change or cut given only in a name is not applied to a line headed by its entry. Residues count along the entry.
UniProt P05412: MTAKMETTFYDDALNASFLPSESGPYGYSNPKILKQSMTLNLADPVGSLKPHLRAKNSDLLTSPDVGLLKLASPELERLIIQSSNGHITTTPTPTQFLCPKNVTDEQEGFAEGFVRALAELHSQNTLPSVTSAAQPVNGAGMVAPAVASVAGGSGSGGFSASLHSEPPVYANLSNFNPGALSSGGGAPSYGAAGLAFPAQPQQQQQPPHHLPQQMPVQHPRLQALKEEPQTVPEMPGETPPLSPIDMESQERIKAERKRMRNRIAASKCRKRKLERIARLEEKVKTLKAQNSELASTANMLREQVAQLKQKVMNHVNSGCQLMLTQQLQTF
UniProt P40763, residues 2-770: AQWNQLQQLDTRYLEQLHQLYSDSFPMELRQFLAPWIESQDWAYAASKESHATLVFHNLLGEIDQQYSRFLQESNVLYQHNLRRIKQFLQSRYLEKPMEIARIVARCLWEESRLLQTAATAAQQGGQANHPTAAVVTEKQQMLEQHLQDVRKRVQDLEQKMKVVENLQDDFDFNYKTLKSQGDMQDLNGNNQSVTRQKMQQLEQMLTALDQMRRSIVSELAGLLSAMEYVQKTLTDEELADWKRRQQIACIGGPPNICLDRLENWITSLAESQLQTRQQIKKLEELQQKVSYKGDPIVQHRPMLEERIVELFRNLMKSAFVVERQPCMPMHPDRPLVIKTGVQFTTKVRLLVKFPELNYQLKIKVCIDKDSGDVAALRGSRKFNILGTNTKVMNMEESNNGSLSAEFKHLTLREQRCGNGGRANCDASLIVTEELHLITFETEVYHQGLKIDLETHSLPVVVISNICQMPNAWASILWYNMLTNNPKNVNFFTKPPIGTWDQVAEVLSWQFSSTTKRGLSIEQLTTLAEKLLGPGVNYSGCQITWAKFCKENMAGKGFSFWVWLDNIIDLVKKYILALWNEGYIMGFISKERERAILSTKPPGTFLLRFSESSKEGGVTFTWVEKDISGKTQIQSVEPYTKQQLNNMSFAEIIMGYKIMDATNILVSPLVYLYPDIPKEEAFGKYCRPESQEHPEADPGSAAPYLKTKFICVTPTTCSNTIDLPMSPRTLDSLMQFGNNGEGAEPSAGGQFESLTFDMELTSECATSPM
UniProt P17325: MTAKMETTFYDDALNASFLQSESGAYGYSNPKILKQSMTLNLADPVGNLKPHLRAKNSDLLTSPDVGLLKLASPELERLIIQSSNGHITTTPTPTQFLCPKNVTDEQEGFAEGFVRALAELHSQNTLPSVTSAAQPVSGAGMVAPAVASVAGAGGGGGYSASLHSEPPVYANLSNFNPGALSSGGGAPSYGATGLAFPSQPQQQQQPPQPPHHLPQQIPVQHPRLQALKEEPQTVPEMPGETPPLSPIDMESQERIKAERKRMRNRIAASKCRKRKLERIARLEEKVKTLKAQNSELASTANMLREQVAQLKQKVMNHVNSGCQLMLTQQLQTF

These are yes or no findings as the source states them, for the method shown. In cells and extracts the contact can be indirect. Some entries that bind do so weakly or less than the wild type.

“GST-Stat3 (107-358) (from UniProt P40763 107-358)”: the binding result in assay [1] and in assay [2] was “binds” each time.

As for “GST-Stat3 (130-358) (from UniProt P40763 130-358)”, the binding result in assay [1] and in assay [2] was “binds” each time.

For the substance “endogenous Stat3 of human HepG2 cells (from UniProt P40763 2-770)”, the binding entry in assay [3] and in assay [4] was “binds” in each case.

In the case of “GST-Stat3 (107-377) (from UniProt P40763 107-377)”, the binding result in assay [1] and in assay [2] was “binds” in each case.

As to “c-Jun residues 105-334 (from UniProt P17325 105-332)”, the binding entry in assay [5] and in assay [6] was “binds” in each case.

For the origin of these results see patent US20020197647A1.
